Some of the results follow. Further columns of the screen follow, without active or inactive calls. The list favours compounds with an active or inconclusive main result. Words in brackets tell the shape of the fitted curve; partial curves, single points and poor fits give uncertain potencies.
Test: qHTS Assay for Lipid Storage Modulators in Drosophila S3 Cells;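 on cell number change: cells counted by Cell Tracker Red CMTPX staining in the red channel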
Conditions: BODIPY lipid droplet fluorescence, 18-24 h; for cell number change: measured here: cell count max response, cells fed with added oleic acid
Method in brief: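 Drosophila S3 cells got compounds at several concentrations plus oleic acid (400 uM solution). Laser-scanning cytometry with 488 nm excitation read lipid droplets at 500-530 nm and cells at 575-640 nm. Percent activity was relative to 20 uM Triacsin C.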

[1] = measured here: lipid fluorescence (Fed channel) AC50, cells fed with added oleic acid
[2] = measured here: cell number channel AC50, cells fed with added oleic acid

Row | Compound | cell number change [%] | AC50 [1] | AC50 [2]
1 | CN(CC(=O)Nc1c(Cl)cccc1Cl)C(=O)c1cccc(-n2cccc2)c1 | -19.3 | 29.1 µM [falling, single point] | –
2 | Cc1cc(C)nc(NC(=O)c2ccc(Cl)cc2)n1 | 31.6 | 29.1 µM [rising, single point] | 0.13 µM [rising, full curve, poor fit]
3 | Cc1ccc(NC(=O)COC(=O)Cn2cnc3c2c(=O)n(C)c(=O)n3C)c(Cl)c1 | -30.2 | 4.11 µM [rising, single point] | 32.6 µM [falling, single point]
4 | CC(C)=CCN1CCN(Cc2nc(-c3ccc(F)cc3)cs2)CC1CCO (stereo not given) | – | 0.0731 µM [rising, full curve, poor fit] | –
5 | O=C(NCCc1ccncc1)C12CC3CC(CC(C3)C1)C2 | -38.7 | – | 23.1 µM [falling, partial curve]
6 | CCCCc1nc2cc(C(=O)N(C)C3CCOCC3)ccc2o1 | – | 29.1 µM [rising, single point] | –
7 | C/C(Cl)=C\Cn1c(Nc2ccccc2)nc2c1c(=O)n(C)c(=O)n2C | 54.6 | – | 6.51 µM [rising, full curve]
8 | CCCCC/C=C/C1=CC(=O)C[C@H](c2ccc(Cl)cc2)C1 | 0.123 | – | –
9 | CC(c1nc2ccccc2c(=O)[nH]1)N1CCCN(S(=O)(=O)c2ccc(F)cc2)CC1 (stereo not given) | 7.9 | 0.164 µM [falling, full curve, poor fit] | –
10 | CSc1ccc(/C=N\NC(=O)COc2ccc(Cl)cc2Br)cc1 | -71 | 0.92 µM [falling, partial curve] | 23.1 µM [falling, partial curve, poor fit]
11 | COc1cccc(CNC(=O)CN2C(=O)COc3ccc(S(=O)(=O)N4CCCCCC4)cc32)c1 | 2.66 | 6.51 µM [rising, single point] | –
12 | N#Cc1ccc(C(=O)OCC(=O)N2CCCC2)cc1 | 41 | – | 25.9 µM [rising, single point]
13 | CC(C)C1=NOC(C(=O)N2CCC(N3CCC(C(=O)N4CCOCC4)CC3)CC2)C1 (stereo not given) | 5.49 | 7.31 µM [falling, partial curve] | –
14 | O=C(O)CCc1ccc(-c2cccs2)n1Cc1ccco1 | 9.19 | 0.731 µM [falling, full curve, poor fit] | –
15 | N[C@@H](Cc1ccccc1)c1nnc(SCc2ccccc2Cl)o1 | – | 2.06 µM [rising, full curve] | 2.91 µM [rising, partial curve]
16 | COc1ccc(-c2cc(N)n(S(=O)(=O)c3ccc(F)cc3)n2)cc1OC | – | 2.31 µM [rising, partial curve, poor fit] | 1.64 µM [rising, partial curve]
17 | CCCCCCCNC(=O)C1(CC2CC(c3cccc(Br)c3)=NO2)CCN(C(=O)c2ccccc2)CC1 (stereo not given) | -42.6 | 16.4 µM [falling, partial curve, poor fit] | 8.2 µM [falling, partial curve]
18 | CCN1CCN(c2cc(C(C)(C)C)nc3c(-c4ccccc4)c(C)nn23)CC1 | 29.9 | 4.11 µM [rising, single point] | –
19 | COC(=O)CC1C(=O)NCCN1C(=O)CSc1nnc(Nc2ccc(C)cc2)s1 (stereo not given) | 3.33 | – | –
20 | CCCCCCSC1=C(C#N)C(c2ccc(C)o2)CC(=O)N1 (stereo not given) | -22.4 | – | –

Grouped by structure, the compounds so far containing bromine.
Row | Compound | cell number change [%] | AC50 [1] | AC50 [2]
10 | CSc1ccc(/C=N\NC(=O)COc2ccc(Cl)cc2Br)cc1 | -71 | 0.92 µM [falling, partial curve] | 23.1 µM [falling, partial curve, poor fit]
17 | CCCCCCCNC(=O)C1(CC2CC(c3cccc(Br)c3)=NO2)CCN(C(=O)c2ccccc2)CC1 (stereo not given) | -42.6 | 16.4 µM [falling, partial curve, poor fit] | 8.2 µM [falling, partial curve]

Additional records:

Row | Compound | cell number change [%] | AC50 [1] | AC50 [2]
21 | O=P(CCCO)(Cc1ccccc1)Cc1ccccc1 | 1.21 | 2.91 µM [falling, partial curve, poor fit] | –
22 | O=c1cc(-c2ccccc2)oc2ccccc12 | 29.9 | 29.1 µM [rising, single point] | –
23 | O=C(CN1CCN(S(=O)(=O)c2ccc(Br)cc2)CC1)Nc1ccccc1C(=O)c1ccccc1 | 9.26 | – | –
24 | CCc1cccc(NC(=O)Cn2c(=O)n(CCC(=O)NCC3CCCO3)c(=O)c3cc(OC)c(OC)cc32)c1 (stereo not given) | -11.4 | 6.51 µM [rising, single point] | –
25 | NC(=O)c1ccccc1NC(=O)c1ccc2ccccc2c1 | -29.9 | 29.1 µM [falling, single point] | –
26 | Cc1ccc(S(=O)(=O)NC2CC2)cc1 | -6.32 | 0.651 µM [falling, full curve] | –
27 | COc1cccc(OCCOCCOc2ccc(C)cc2[N+](=O)[O-])c1 | -17 | 14.6 µM [falling, partial curve] | –
28 | Nc1ccccc1C(=O)N1CCc2ccccc21 | 4.5 | – | –
29 | CSc1nc(-c2ccc(Cl)cc2)c(C#N)c(=O)n1C | -48.7 | 29.1 µM [falling, single point] | 29.1 µM [falling, single point]
30 | CCOc1ccc(CCNS(=O)(=O)c2ccc3c(c2)oc(=O)n3C)cc1OCC | 2.66 | 29.1 µM [rising, single point] | –
31 | Cn1c(/N=C/c2cc(Cl)ccc2O)nc2ccccc21 | 30.4 | 0.58 µM [rising, single point] | 32.6 µM [rising, single point]
32 | Cc1nnnn1-c1cccc(C(=O)O)c1 | -39.6 | – | 3.66 µM [falling, full curve]
33 | CCOc1cc2c(cc1OCC)C(c1ccccc1OC)OC(=O)C2 (stereo not given) | 30.2 | 0.92 µM [falling, partial curve, poor fit] | 6.51 µM [rising, partial curve]
34 | COc1cccc(/C=C2\SC(=O)N(CCC(=O)NNC(=O)c3cccc(Cl)c3)C2=O)c1 | -35.4 | 10.3 µM [falling, partial curve, poor fit] | 8.2 µM [falling, partial curve, poor fit]
35 | C/C=C\C(=O)Nc1cccc(C2=NOC3(C2)C[C@@H](C(N)=O)N(C(=O)c2ccc(OC)cc2)C3)c1 (stereo not given in full) | -0.0629 | 6.51 µM [falling, single point] | –
36 | CCNC(=S)NCc1ccc(OC)c(OC)c1 | -7.38 | 6.51 µM [rising, single point] | –
37 | CCCN(CC(=O)Nc1ccccc1OC)C(=O)CN1C(=O)NC2(CCCCC2)C1=O | 15.4 | – | –
38 | O=C(CSc1nnc(COc2ccc(Cl)cc2)o1)N1CCOCC1 | -25.8 | 0.82 µM [falling, full curve] | 1.64 µM [falling, single point]
39 | Cc1c(C(=O)Nc2ccc(F)cc2)oc2ccc(S(=O)(=O)N3CCC4(CC3)OCCO4)cc12 | -4.42 | 0.164 µM [falling, full curve] | 0.00411 µM [falling, full curve, poor fit]
40 | CCCCN(CCCNC(=O)CN1C(=O)COc2ccccc21)c1ccccc1 | 101 | – | 9.2 µM [rising, partial curve]

Row | Compound | cell number change [%] | AC50 [1] | AC50 [2]
41 | COc1ccccc1-c1cc2nc(C)cc(C)n2n1 | -38.8 | 2.91 µM [rising, single point] | 29.1 µM [falling, single point]
42 | COc1ccc([C@H]2CC(=O)C=C(c3cc4ccccc4c4ccccc34)C2)cc1 | -16.3 | 25.9 µM [falling, partial curve, poor fit] | –
43 | CC(C)CNc1nc2c(c(=O)n(C)c(=O)n2C)n1Cc1cccc(Br)c1 | – | 2.59 µM [rising, partial curve] | 2.31 µM [rising, partial curve]
44 | COc1ccc(NS(=O)(=O)c2cccc(C(=O)NCC(c3ccc(OC)cc3)N3CCCC3)c2)cc1 (stereo not given) | -19 | – | –
45 | CCc1cc(=O)oc2c(C)c(OCC(=O)NCC3CCC(C(=O)O)CC3)ccc12 (stereo not given) | 25.9 | – | –
46 | COc1ccc(Nc2nccc3c2nnn3C)cc1 | 1.47 | 29.1 µM [rising, single point] | –
47 | O=C(CNC(=O)N1CC(=O)Nc2ccccc21)Nc1cccc(F)c1 | -9.16 | 20.6 µM [rising, single point] | –
48 | COCCNC(=O)CSCc1cc(C)cc(C)c1 | – | 0.731 µM [falling, single point] | –
49 | Cc1cccc(C(=O)OCC(=O)N(CC(C)C)c2c(N)n(Cc3ccccc3)c(=O)[nH]c2=O)c1C | – | 3.66 µM [falling, single point] | 3.26 µM [falling, partial curve, poor fit]
50 | Cc1ccc(C(=O)OCC(=O)NC(=O)c2ccccc2)o1 | 17.3 | 32.6 µM [falling, single point] | –
51 | CCN(CC)CCCN1C(=O)C(O)=C(C(=O)c2ccco2)C1c1ccc(OC(C)C)cc1 (stereo not given) | -15.4 | – | –
52 | NC(=S)Nc1cccc2cccnc12 | -15.7 | 0.116 µM [falling, full curve, poor fit] | 0.00517 µM [falling, full curve, poor fit]
53 | CCOC(=O)CSc1n[nH]c(-c2cccnc2)n1 | 19.8 | – | –
54 | O=C(CSc1ccc(-c2cccc([N+](=O)[O-])c2)nn1)N1CCCCC1 | -28.9 | – | 0.00461 µM [falling, full curve, poor fit]
55 | CCOC(Cn1c(CCCO)nc2ccccc21)OCC | 2.5 | – | –
56 | FC(F)(F)c1cnc(Sc2nc3nccc(-c4ccc(Cl)cc4)n3n2)c(Cl)c1 | 12.2 | – | –
57 | O=C(CCN1CCOCC1)Nc1cc(C(=O)Nc2ccccc2F)ccc1N1CC2CC(C1)c1cccc(=O)n1C2 (stereo not given) | – | 0.411 µM [falling, single point] | 0.291 µM [falling, partial curve, poor fit]
58 | COCCCn1c(CCC(=O)O)ccc1-c1cccs1 | -8.23 | 0.0651 µM [falling, full curve, poor fit] | –
59 | CCOc1ccc(C)cc1S(=O)(=O)NC1CCCCC1 | 10.3 | 4.61 µM [rising, partial curve] | –
